Laboratory results published in patent US20090258381A1, “Methods for Determining the Cleavability of Substrates” (priority 2005, published 2009).
The name of at least one read-out is uncertain.

Tests used:
trypsin = assay: Enzymatic conversion of substrate with defined trypsin solution, uncleaved peptide detected by enzyme immunoassay; assay type: biochemical; conditions: cleaved with trypsin; 37° C., 90 min; geometric mean and standard deviation of a quintuplicate measurement
chymotrypsin = assay: Enzymatic conversion of substrate with defined chymotrypsin solution, uncleaved peptide detected by enzyme immunoassay; assay type: biochemical; conditions: cleaved with chymotrypsin; 37° C., 90 min; geometric mean and standard deviation of a quintuplicate measurement

Substance	catalytic efficiency (kcat/KM) (trypsin) [M⁻¹ s⁻¹]	catalytic efficiency (kcat/KM) (chymotrypsin) [M⁻¹ s⁻¹]
GPRARLA [2,4D-Aun-GPARLA-PEG9-LysBio-Anch, trypsin substrate peptide labelled with 2,4-D and biotin]	2e+06 ± 900000	–
2,4D-Aun-GVPFGP-PEG9-LysBio-Anch	–	23000 ± 9000
